The reference is the same well before dosing, and untreated signal decays as well.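 The tumor cells are basal-like or mesenchymal-like triple-negative breast cancer lines cultured without fibroblasts. Reduced red signal indicates lost mitochondrial integrity, serving as a proxy for apoptotic death.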
Key:
Test in all cases: relative JC-1 red fluorescence (viability) vs pre-drug, monoculture (fraction); higher = more viable cancer cells
Settings in all cases: coculture fibroblast: none (monoculture)
MDAMB231 = system: MDAMB231
Procedure: (§1)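 JC-1 labelled TNBC cells grown in monoculture (density kept equal with unlabelled cancer cells) in 384-well plates in FluoroBrite medium, treated with one of 42 anticancer drugs at 0.1, 1, 10 or 100 uM. JC-1 red fluorescence (mitochondrial integrity, surrogate of apoptotic death) was read by plate reader every 8 h for 72 h. Values are normalised to each well's pre-drug value, with background from alamethicin. The stock of one drug was tenfold lower, so its dose labels may be too high. Monoculture values are repeated alongside each fibroblast plate and are averaged here.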

MDAMB468 = system: MDAMB468
Procedure: as §1

Hs578T = system: Hs578T
Procedure: as §1

BT20 = system: BT20
Procedure: as §1

CN(C)CCOc1ccc(/C(=C(/CCCl)c2ccccc2)c2ccccc2)cc1 [Toremifene]
relative JC-1 red fluorescence
Settings | 8 h | 16 h | 24 h | 32 h | 40 h | 48 h | 56 h | 64 h | 72 h
BT20, 0.1 µM | 0.966 | 0.836 | 0.775 | 0.7 | 0.639 | 0.61 | 0.572 | 0.55 | 0.538
BT20, 1 µM | 0.9795 | 0.9095 | 0.839 | 0.781 | 0.766 | 0.748 | 0.724 | 0.702 | 0.691
BT20, 10 µM | 0.952 | 0.8718 | 0.884 | 0.862 | 0.86 | 0.865 | 0.854 | 0.853 | 0.848
BT20, 100 µM | 0.374 | 0.232 | 0.211 | 0.148 | 0.109 | 0.08818 | 0.0602 | 0.039 | 0.0217
Hs578T, 0.1 µM | 0.8485 | 0.69 | 0.703 | 0.634 | 0.59 | 0.569 | 0.551 | 0.553 | 0.548
Hs578T, 1 µM | 0.868 | 0.77 | 0.718 | 0.655 | 0.62 | 0.588 | 0.568 | 0.568 | 0.554
Hs578T, 10 µM | 0.895 | 0.895 | 0.852 | 0.882 | 0.883 | 0.898 | 0.908 | 0.899 | 0.888
Hs578T, 100 µM | 0.442 | 0.333 | 0.314 | 0.213 | 0.16087 | 0.1211 | 0.0848 | 0.0589 | 0.0317
MDAMB231, 0.1 µM | 0.7528 | 0.667 | 0.738 | 0.653 | 0.616 | 0.625 | 0.605 | 0.648 | 0.6493
MDAMB231, 1 µM | 0.768 | 0.769 | 0.624 | 0.668 | 0.621 | 0.584 | 0.547 | 0.55 | 0.54
MDAMB231, 10 µM | 0.811 | 0.83374 | 0.822 | 0.849 | 0.812 | 0.787 | 0.763 | 0.763 | 0.746
MDAMB231, 100 µM | 0.47 | 0.345 | 0.361 | 0.206 | 0.135 | 0.0855 | 0.0419 | 0.0264 | 0.03
MDAMB468, 0.1 µM | 0.8924 | 0.809 | 0.729 | 0.6537 | 0.6113 | 0.595 | 0.549 | 0.519 | 0.505
MDAMB468, 1 µM | 0.9191 | 0.872 | 0.8301 | 0.78005 | 0.7423 | 0.716 | 0.683 | 0.661 | 0.653
MDAMB468, 10 µM | 0.859 | 0.765 | 0.776 | 0.839 | 0.75 | 0.7145 | 0.896 | 0.852 | 0.769
MDAMB468, 100 µM | 0.556 | 0.417 | 0.354 | 0.288 | 0.228 | 0.196 | 0.147 | 0.111 | 0.0848

— the supplement of paper PMC6078165
